A short description of this data set: Boc solid-phase peptide synthesis; MBHA resin; HBTU/DIEA. Conditions: whole synthesis, analytical HPLC.

For the substance (Aib^8.35)hGLP-1(7-36)NH2, the “final HPLC purity” value is 98.6%.

The values are drawn from patent US20120077746 (published 2012).
